PubChem BioAssay AID720505 | Drosophila RNAi Screening Center | 2013
Screen: 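Knock-downs that reduce calcium influx once internal stores are emptied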 (primary screen). Cells: Drosophila S2R+ cells. Reagent: long dsRNA against Drosophila genes. Challenge: thapsigargin (2 µM) in calcium-free buffer to empty internal stores, then 2 mM calcium added back. Measurement: 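Fluo-4 signal in 384-well plates read on a FLIPR after thapsigargin (2 µM, calcium-free) store depletion and 2 mM calcium add-back; unnormalised mean endpoint per well; screen run twice, selected wells retested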. Direction: calcium signal and retest calcium signal: higher = more calcium entry after store depletion. Call rule: 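Knock-downs counted as hits when calcium entry dropped relative to STIM1 positive and Rho1 negative controls present on each plate; roughly 1500 genes called, with reductions of differing size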. Meaning of the calls: active = called as lowering calcium entry; inactive = not called.
The deposit covers about 20,000 reagents; this is a random part of those that have a named target and a result. Over the whole deposit, about 2,100 (10%) are marked active. 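Raw plate signals without normalisation; calls rest on control-based scores that were not deposited; replicate 2 separates called from uncalled poorly.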 Entries without a mark were called inactive. A plus sign joins genes that one reagent is predicted to hit. Not given: the amount of reagent, the time to read-out.

Gene | DRSC id | calcium signal, replicate 1 | calcium signal, replicate 2 | retest calcium signal, replicate 1 | retest calcium signal, replicate 2
CG13305 (GeneID 38992) | DRSC09975 | 81.2 | 63.4 | – | –
CHOp24 (GeneID 31382) | DRSC18310 | 119 | 159 | – | –
GstD9 (GeneID 41502) | DRSC14185 | 121 | 94.9 | – | –
babos (GeneID 37557) | DRSC03923 | 111 | 7348 | – | –
babos (GeneID 37557) | DRSC04397 | 186 | 90.1 | – | –
CG34056 (GeneID 38106) | DRSC08374 | 83 | 99.5 | – | –
CG5958 (GeneID 34022) | DRSC02915 | 163 | 85.8 | – | –
AMPKalpha (GeneID 43904) | DRSC18714 | 123 | 160 | – | –
RunxB (GeneID 33051) | DRSC20395 | 95.1 | 112 | – | –
RunxB (GeneID 33051) | DRSC20525 | 200 | 96.1 | – | –
RunxB (GeneID 33051) | DRSC20526 | 67.1 (active) | 120 | – | –
RunxB (GeneID 33051) | DRSC23150 | 87.6 | 132 | – | –
PlexB (GeneID 43766) | DRSC17177 | 141 | 161 | – | –
CG7509 (GeneID 38579) | DRSC08596 | 69.6 (active) | 119 | – | –
CG9119 (GeneID 38124) | DRSC08620 | 140 | 105 | – | –
zfh2 (GeneID 43795) | DRSC17178 | 109 | 187 | – | –
CR14117 (GeneID 39473) | DRSC10121 | 58.4 | 94.9 | – | –
His3:CG33818 + His3:CG33857 + His3:CG33806 + 20 more | DRSC21267 | 40.9 (active) | 45 | – | –
l(2)34Fd (GeneID 34839) | DRSC01911 | 94.6 | 76.9 | – | –
CG13217 (GeneID 36180) | DRSC06339 | 97.8 | 115 | – | –
CG13016 (GeneID 36562) | DRSC06271 | 90.4 | 146 | – | –
adp (GeneID 37073) | DRSC06916 | 165 | 88.6 | – | –
vlc (GeneID 46078) | DRSC04922 | 197 | 217 | – | –
CG7329 (GeneID 34457) | DRSC03046 | 188 | 159 | – | –
halo (GeneID 33334) | DRSC00705 | 138 | 147 | – | –
CHKov1 (GeneID 43067) | DRSC01566 | 161 | 88 | – | –
CHKov1 (GeneID 43067) | DRSC01696 | 175 | 118 | – | –
CHKov1 (GeneID 43067) | DRSC14258 | 280 | 125 | – | –
CHKov1 (GeneID 43067) | DRSC20937 | 99.6 | 8595 | – | –
CG14357 (GeneID 41716) | DRSC14820 | 122 | 137 | – | –
kon (GeneID 35104) | DRSC02033 | 78.6 | 110 | – | –
yuri (GeneID 34894) | DRSC01453 | 71.1 (active) | 64.6 | – | –
yuri (GeneID 34894) | DRSC01454 | 62.1 (active) | 87.2 | – | –
yuri (GeneID 34894) | DRSC01943 | 80.5 (active) | 114 | – | –
yuri (GeneID 34894) | DRSC01972 | 135 | 160 | – | –
ap (GeneID 35509) | DRSC04917 | 153 | 95.9 | – | –
CARPA (GeneID 31687) | DRSC17905 | 67.8 (active) | 264 | – | –
CARPA (GeneID 31687) | DRSC21633 | 127 | 108 | – | –
St2 (GeneID 41098) | DRSC15142 | 113 | 127 | – | –
St2 (GeneID 41098) | DRSC22624 | 115 | 202 | – | –
Dbp73D (GeneID 39871) | DRSC11142 | 118 | 100 | – | –
CG9899 (GeneID 37676) | DRSC04597 | 145 | 212 | – | –
Sod1 (GeneID 39251) | DRSC11286 | 101 | 87.5 | – | –
Dnz1 (GeneID 34503) | DRSC03317 | 85.3 | 101 | – | –
RpS15 (GeneID 36851) | DRSC07151 | 90.9 (active) | 118 | – | –
CG5597 (GeneID 37789) | DRSC04517 | 93.6 | 98.6 | – | –
Drep4 (GeneID 34734) | DRSC03408 | 90.8 | 92.5 | – | –
CG12662 (GeneID 31825) | DRSC17865 | 293 | 78.3 | – | –
CG32413 (GeneID 318018) | DRSC21591 | 159 | 103 | – | –
Trs31 (GeneID 36641) | DRSC05975 | 138 | 122 | – | –
Acsl (GeneID 46068) | DRSC07252 | 167 | 163 | – | –
CG44774 (GeneID 31424) | DRSC18342 | 69.3 (active) | 192 | – | –
l(2)k09022 (GeneID 33960) | DRSC02108 | 87.5 | 106 | – | –
RabX1 (GeneID 44172) | DRSC04678 | 182 | 213 | – | –
CG9631 (GeneID 41729) | DRSC14137 | 151 | 149 | – | –
ems (GeneID 41697) | DRSC16941 | 115 | 197 | – | –
CG32371 (GeneID 317999) | DRSC22209 | 91.9 | 229 | – | –
CG14262 (GeneID 43286) | DRSC14757 | 158 | 145 | – | –
CG15406 (GeneID 33542) | DRSC00420 | 143 | 96.5 | – | –
WDR79 (GeneID 33865) | DRSC03159 | 112 | 166 | – | –
Pdha (GeneID 31406) | DRSC18413 | 235 | 121 | – | –
nudE (GeneID 39169) | DRSC10962 | 94.7 | 102 | – | –
ths (GeneID 36258) | DRSC06153 | 82.1 | 151 | – | –
ths (GeneID 36258) | DRSC23123 | 93.2 | 151 | – | –
BomS1 (GeneID 37100) | DRSC22678 | 67 | 151 | – | –
CG9083 + Tpc2 | DRSC04625 | 94 | 77.6 | – | –
OS9 + Hf | DRSC03392 | 84.6 | 106 | – | –
CG32982 (GeneID 34237) | DRSC01059 | 222 | 91.2 | – | –
CG32982 (GeneID 34237) | DRSC02677 | 118 | 95.9 | – | –
CG32982 (GeneID 34237) | DRSC03268 | 124 | 153 | 71 | 87
CG32982 (GeneID 34237) | DRSC03269 | 225 | 164 | – | –
CG32982 (GeneID 34237) | DRSC21912 | 62.5 | 182 | – | –
Cals (GeneID 43824) | DRSC17196 | 124 | 105 | – | –
Cals (GeneID 43824) | DRSC21661 | 117 | 136 | – | –
CG2336 (GeneID 40804) | DRSC12581 | 171 | 166 | – | –
CG8112 (GeneID 41033) | DRSC16377 | 136 | 195 | – | –
Rb97D (GeneID 43231) | DRSC16815 | 127 | 108 | – | –
CG10752 (GeneID 39467) | DRSC09799 | 95.7 | 83.3 | – | –
CG11581 (GeneID 32362) | DRSC19407 | 118 | 122 | – | –
CG9344 (GeneID 37372) | DRSC04541 | 188 | 105 | – | –
ND-B17.2 (GeneID 33443) | DRSC00577 | 151 | 151 | – | –
CG10089 (GeneID 39517) | DRSC09694 | 99.6 | 114 | – | –
CG10089 (GeneID 39517) | DRSC09695 | 102 | 105 | – | –
Ntl (GeneID 34046) | DRSC03003 | 117 | 119 | – | –
CG9380 (GeneID 38011) | DRSC04549 | 102 | 145 | – | –
CG16781 (GeneID 31315) | DRSC18117 | 130 | 119 | – | –
Jupiter (GeneID 41392) | DRSC15204 | 94.9 | 141 | – | –
Jupiter (GeneID 41392) | DRSC15205 | 151 | 106 | – | –
Jupiter (GeneID 41392) | DRSC15389 | 166 | 115 | – | –
CG10916 (GeneID 37081) | DRSC06012 | 162 | 86.7 | – | –
Cyp6a20 (GeneID 36664) | DRSC07380 | 159 | 101 | – | –
Kyat (GeneID 41433) | DRSC16147 | 97.9 | 106 | – | –
CG13230 (GeneID 50237) | DRSC06350 | 79.7 | 122 | – | –
CG7251 (GeneID 33791) | DRSC03039 | 135 | 263 | – | –
CG2082 (GeneID 40713) | DRSC12125 | 132 | 86.5 | – | –
Cam (GeneID 36329) | DRSC07353 | 89.5 | 147 | 81 | 87.3
Cam (GeneID 36329) | DRSC07354 | 96.7 (active) | 160 | – | –
CG3548 (GeneID 37932) | DRSC04387 | 142 | 85.1 | – | –
COX7B (GeneID 50266) | DRSC10895 | 65.6 | 102 | – | –
Osi9 (GeneID 40763) | DRSC12278 | 83.2 | 111 | – | –
CG9555 (GeneID 34223) | DRSC03264 | 107 | 140 | – | –
CG9123 (GeneID 32462) | DRSC20156 | 53.5 (active) | 95 | – | –
Nmt (GeneID 38909) | DRSC11236 | 92 | 84.4 | – | –
Tsp66E (GeneID 39017) | DRSC09683 | 95.1 | 84.4 | – | –
CG34450 (GeneID 5740775) | DRSC17822 | 131 | 133 | – | –
drm (GeneID 49638) | DRSC00277 | 164 | 109 | – | –

9 neighbouring records already listed:
Gene | DRSC id | calcium signal, replicate 1 | calcium signal, replicate 2 | retest calcium signal, replicate 1 | retest calcium signal, replicate 2
Dbp73D (GeneID 39871) | DRSC11142 | 118 | 100 | – | –
CG9899 (GeneID 37676) | DRSC04597 | 145 | 212 | – | –
Sod1 (GeneID 39251) | DRSC11286 | 101 | 87.5 | – | –
Dnz1 (GeneID 34503) | DRSC03317 | 85.3 | 101 | – | –
RpS15 (GeneID 36851) | DRSC07151 | 90.9 (active) | 118 | – | –
CG5597 (GeneID 37789) | DRSC04517 | 93.6 | 98.6 | – | –
Drep4 (GeneID 34734) | DRSC03408 | 90.8 | 92.5 | – | –
CG12662 (GeneID 31825) | DRSC17865 | 293 | 78.3 | – | –
CG32413 (GeneID 318018) | DRSC21591 | 159 | 103 | – | –
